In patent publication US20110129476A1:
These are yes or no findings as the source states them, for the method shown. Some entries that bind do so weakly or less than the wild type.

Chains of the proteins cited; added tags and fusions are not shown. Lines headed by an entry give the natural chain unless they say otherwise; changes in a name come on top. Residues count along the entry.
UniProt P20029, residues 20-655: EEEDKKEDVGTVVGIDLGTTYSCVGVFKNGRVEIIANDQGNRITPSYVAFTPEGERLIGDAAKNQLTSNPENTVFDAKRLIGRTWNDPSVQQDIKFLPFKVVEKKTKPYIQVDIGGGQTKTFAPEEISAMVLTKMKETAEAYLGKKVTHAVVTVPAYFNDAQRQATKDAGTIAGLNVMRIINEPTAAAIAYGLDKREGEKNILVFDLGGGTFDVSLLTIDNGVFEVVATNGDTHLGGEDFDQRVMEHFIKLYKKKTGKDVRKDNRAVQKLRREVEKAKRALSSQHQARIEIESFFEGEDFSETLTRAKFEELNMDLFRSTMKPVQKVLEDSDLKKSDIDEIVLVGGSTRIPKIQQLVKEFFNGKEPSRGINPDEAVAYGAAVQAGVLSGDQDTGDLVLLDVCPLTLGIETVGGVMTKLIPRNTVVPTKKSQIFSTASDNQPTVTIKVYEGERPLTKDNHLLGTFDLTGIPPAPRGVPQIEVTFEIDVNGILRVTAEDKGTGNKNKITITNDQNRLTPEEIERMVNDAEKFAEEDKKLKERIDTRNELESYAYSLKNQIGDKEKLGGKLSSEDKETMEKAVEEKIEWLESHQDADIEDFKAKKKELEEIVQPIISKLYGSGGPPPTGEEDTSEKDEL
UniProt Q9D8I1: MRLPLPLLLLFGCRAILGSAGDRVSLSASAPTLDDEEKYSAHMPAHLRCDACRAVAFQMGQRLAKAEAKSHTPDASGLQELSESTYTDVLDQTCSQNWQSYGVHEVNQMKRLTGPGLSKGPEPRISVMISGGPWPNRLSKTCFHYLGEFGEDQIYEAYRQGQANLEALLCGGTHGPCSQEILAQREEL

What was measured:
[1] = molecular target: BiP, endogenous protein of murine K46 B cells (mouse) (UniProt P20029); assay: α-MZB1 Sepharose immunoprecipitation from K46 extracts, immunoblot (legend of FIG. 12)
[2] = molecular target: BiP, endogenous protein of murine K46 B cells (mouse) (UniProt P20029); assay: method not described at this place

“MZB1 (marginal zone B1 B cell factor 1), endogenous protein of murine K46 mature B cells (from UniProt Q9D8I1 21-188)” was tested, and the binding [1] was “binds” and the binding [2] was “binds”.
